Measured values: publication PMC3900705
Results are given in words; binding and its absence hold for the method and conditions named. In cells and extracts the contact can be indirect. Binding calls can cover weak binding; strength is not graded here.

Chains of the proteins cited; added tags and fusions are not shown.
UniProt Q14258: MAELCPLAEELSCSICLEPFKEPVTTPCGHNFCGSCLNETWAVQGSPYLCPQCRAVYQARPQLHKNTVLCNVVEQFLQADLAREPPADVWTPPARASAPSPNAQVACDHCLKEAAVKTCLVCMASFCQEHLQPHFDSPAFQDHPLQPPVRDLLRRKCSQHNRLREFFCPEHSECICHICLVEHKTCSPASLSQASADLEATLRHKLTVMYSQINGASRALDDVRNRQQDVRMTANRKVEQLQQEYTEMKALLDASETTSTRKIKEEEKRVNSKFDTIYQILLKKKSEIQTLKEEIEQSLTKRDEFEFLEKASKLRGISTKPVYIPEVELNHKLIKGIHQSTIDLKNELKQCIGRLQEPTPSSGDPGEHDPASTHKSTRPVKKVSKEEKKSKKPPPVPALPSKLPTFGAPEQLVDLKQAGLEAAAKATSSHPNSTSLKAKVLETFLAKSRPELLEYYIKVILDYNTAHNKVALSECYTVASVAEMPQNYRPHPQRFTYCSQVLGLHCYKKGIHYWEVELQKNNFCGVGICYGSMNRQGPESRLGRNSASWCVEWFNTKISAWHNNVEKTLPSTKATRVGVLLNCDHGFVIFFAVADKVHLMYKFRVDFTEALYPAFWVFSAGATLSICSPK

Molecular target: GST-d2CARD (duck RIG-I CARD domains fused to GST) (duck) (UniProt D3TI84)
Test: pull-down; GST pulldown from lysates of co-transfected chicken DF-1 cells on glutathione Sepharose 4B, 3 to 4 h at 4°C, lysis buffer 50 mM TRIS pH 7.2, 150 mM NaCl, 1% Triton X-100; immunoblot with anti-GST and anti-V5

binding: binds
Substance: human TRIM25-V5, in chicken DF-1 cells (from UniProt Q14258 1-630) (enzyme)
